This passage reports binding results from paper PMC7343964.

Sequences of proteins named here, by UniProt entry; tags and fusion partners are left off.
UniProt Q9FRL8: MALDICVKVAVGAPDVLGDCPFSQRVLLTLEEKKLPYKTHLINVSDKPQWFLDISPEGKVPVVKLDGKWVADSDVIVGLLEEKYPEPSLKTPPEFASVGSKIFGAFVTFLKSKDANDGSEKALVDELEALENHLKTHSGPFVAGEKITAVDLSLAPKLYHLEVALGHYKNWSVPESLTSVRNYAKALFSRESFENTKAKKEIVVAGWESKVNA

Test [1] has as its target T1, YAP1C probe (Yap1 C-terminal cysteine-rich domain construct fused to a tandem affinity purification tag) (Saccharomyces cerevisiae) (UniProt P19880).
T1 sequence: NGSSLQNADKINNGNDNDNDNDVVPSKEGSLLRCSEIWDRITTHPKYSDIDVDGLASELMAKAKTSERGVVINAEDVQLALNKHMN
Kind of test: affinity purification with mass spectrometry; extract of YAP1C cells (untreated or 20 mM H2O2 for 30 min; 10 mM iodoacetamide in the lysis buffer) on IgG-Sepharose beads, 2 h at 4°C; on-bead Trypsin/Lys-C digestion under non-reducing conditions; LC-MS/MS of linear and cross-linked peptides (pLink 2, FDR ≤ 1%).

Test [2] has as its target T1, YAP1C probe (Yap1 C-terminal cysteine-rich domain construct fused to a tandem affinity purification tag) (Saccharomyces cerevisiae). The test is described as above. This is another data set of the same source.

Like-named read-outs stand apart in the source and are kept apart here. These are yes or no findings as the source states them, for the method shown. In cells and extracts the contact can be indirect. Here binding means that the protein was enriched with, or labelled near, the bait; the list need not be complete. Sequences can lack the tags named with a protein.

As for “DEHYDROASCORBATE REDUCTASE 2 (from UniProt Q9FRL8 1-213) (enzyme)”, in test [1], the binding entry was “binds”.

B1: PROTEIN PHOSPHATASE5 (enzyme, UniProt Q84XU2 1-538)
chain: METKNENSDVSRAEEFKSQANEAFKGHKYSSAIDLYTKAIELNSNNAVYWANRAFAHTKLEEYGSAIQDASKAIEVDSRYSKGYYRRGAAYLAMGKFKDALKDFQQVKRLSPNDPDATRKLKECEKAVMKLKFEEAISVPVSERRSVAESIDFHTIGNKPRSSSMPTKTALAAVVAAVMVVAVRGFATTEILMVLVSVVLGTFWWGSFSGKVEPQYSGARIEGEEVTLDFVKTMMEDFKNQKTLHKRYAYQIVLQTRQILLALPSLVDISVPHGKHITVCGDVHGQFYDLLNIFELNGLPSEENPYLFNGDFVDRGSFSVEIILTLFAFKCMCPSSIYLARGNHESKSMNKIYGFEGEVRSKLSEKFVDLFAEVFCYLPLAHVINGKVFVVHGGLFSVDGVKLSDIRAIDRFCEPPEEGLMCELLWSDPQPLPGRGPSKRGVGLSFGGDVTKRFLQDNNLDLLVRSHEVKDEGYEVEHDGKLITVFSAPNYCDQMGNKGAFIRFEAPDMKPNIVTFSAVPHPDVKPMAYANNFLRMFN
Regarding B1, the binding entry in test [2] was “binds”.
